Results are given in words; binding and its absence hold for the method and conditions named. Some binding calls cover weakened binding; strength is not graded here. Tags and fused reporters may be left off the sequences shown. Blank lines part the entries; values can stand above or below the molecule they belong to.
Assays:
Assay in all cases: two-hybrid; MKKs in pGBKT7, MKD1 and MPKs in pGADT7, yeast strain Y190; β-galactosidase activity measured in diploids
[1] = biological target: T1, MKK1 (yeast two-hybrid fusion in pGBKT7) (Arabidopsis) (UniProt Q94A06)
T1 sequence: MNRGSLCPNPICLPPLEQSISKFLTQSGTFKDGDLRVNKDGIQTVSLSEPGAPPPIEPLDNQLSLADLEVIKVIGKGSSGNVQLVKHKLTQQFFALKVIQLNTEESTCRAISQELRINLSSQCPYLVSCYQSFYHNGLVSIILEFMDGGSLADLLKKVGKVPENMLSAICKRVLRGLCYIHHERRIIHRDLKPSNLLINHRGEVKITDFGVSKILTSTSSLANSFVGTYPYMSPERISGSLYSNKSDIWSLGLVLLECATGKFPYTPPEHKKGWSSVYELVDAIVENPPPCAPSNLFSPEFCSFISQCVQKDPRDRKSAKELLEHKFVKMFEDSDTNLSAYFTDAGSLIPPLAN

Sequences of proteins named here, by UniProt entry; tags and fusion partners are left off.
UniProt Q39026: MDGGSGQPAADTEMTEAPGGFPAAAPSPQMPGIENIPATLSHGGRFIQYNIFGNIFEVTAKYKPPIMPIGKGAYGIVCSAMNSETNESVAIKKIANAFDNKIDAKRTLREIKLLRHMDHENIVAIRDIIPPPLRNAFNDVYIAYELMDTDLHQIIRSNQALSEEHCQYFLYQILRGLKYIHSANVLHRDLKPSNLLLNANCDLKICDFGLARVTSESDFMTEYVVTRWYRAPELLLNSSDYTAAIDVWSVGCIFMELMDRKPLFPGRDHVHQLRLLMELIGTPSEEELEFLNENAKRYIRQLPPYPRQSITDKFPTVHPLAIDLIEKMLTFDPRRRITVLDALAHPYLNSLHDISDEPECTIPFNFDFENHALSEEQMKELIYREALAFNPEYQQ

[2] = biological target: T2, MKK2 (yeast two-hybrid fusion in pGBKT7) (Arabidopsis) (UniProt Q9S7U9)
T2 sequence: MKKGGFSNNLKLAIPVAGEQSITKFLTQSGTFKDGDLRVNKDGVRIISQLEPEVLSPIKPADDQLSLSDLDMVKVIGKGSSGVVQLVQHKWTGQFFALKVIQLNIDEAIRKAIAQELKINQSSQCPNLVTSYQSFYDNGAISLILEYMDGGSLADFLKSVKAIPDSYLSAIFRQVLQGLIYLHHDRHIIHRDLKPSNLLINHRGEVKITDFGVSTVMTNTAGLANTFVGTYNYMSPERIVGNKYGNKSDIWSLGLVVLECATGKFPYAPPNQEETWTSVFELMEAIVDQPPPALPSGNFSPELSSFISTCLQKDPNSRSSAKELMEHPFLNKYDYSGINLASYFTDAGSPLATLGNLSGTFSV

[3] = biological target: T3, MKK5 (yeast two-hybrid fusion in pGBKT7) (Arabidopsis) (UniProt Q8RXG3)
T3 sequence: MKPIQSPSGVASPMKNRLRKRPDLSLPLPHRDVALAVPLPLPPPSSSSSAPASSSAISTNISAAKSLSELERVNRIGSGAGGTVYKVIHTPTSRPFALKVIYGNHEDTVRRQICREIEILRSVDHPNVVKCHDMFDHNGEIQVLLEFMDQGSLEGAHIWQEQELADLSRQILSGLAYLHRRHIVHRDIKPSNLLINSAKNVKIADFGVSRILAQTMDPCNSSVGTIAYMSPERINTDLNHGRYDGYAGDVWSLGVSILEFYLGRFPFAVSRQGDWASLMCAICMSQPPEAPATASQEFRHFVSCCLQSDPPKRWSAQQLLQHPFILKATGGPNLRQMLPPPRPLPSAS

binding [1]: no binding
binding [2]: binds
binding [3]: binds
Molecule: MPK6 (yeast two-hybrid fusion in pGADT7) (from UniProt Q39026 1-395)

binding [1]: binds
binding [2]: binds
binding [3]: binds
B1: MPK3 (yeast two-hybrid fusion in pGADT7) (protein, UniProt Q39023 1-370)
chain: MNTGGGQYTDFPAVETHGGQFISYDIFGSLFEITSKYRPPIIPIGRGAYGIVCSVLDTETNELVAMKKIANAFDNHMDAKRTLREIKLLRHLDHENIIAIRDVVPPPLRRQFSDVYISTELMDTDLHQIIRSNQSLSEEHCQYFLYQLLRGLKYIHSANIIHRDLKPSNLLLNANCDLKICDFGLARPTSENDFMTEYVVTRWYRAPELLLNSSDYTAAIDVWSVGCIFMELMNRKPLFPGKDHVHQMRLLTELLGTPTESDLGFTHNEDAKRYIRQLPNFPRQPLAKLFSHVNPMAIDLVDRMLTFDPNRRITVEQALNHQYLAKLHDPNDEPICQKPFSFEFEQQPLDEEQIKEMIYQEAIALNPTYG

From article PMC7094076
